Laboratory results as given in the supplement of paper PMC3334620.
Over roughly 33,000 sequences, “E-score (-0.5 to 0.5)” has its median near -8e-05; the highest 2% begin near 0.23. This is one part of the list.

Each sequence was assayed against T1, Nrg2 (UniProt P38082) (assay: PBM E-score (8-mer binding enrichment) (E-score (-0.5 to 0.5)); higher = stronger / more preferred TF binding). Details: protein concentration: 100 nM; construct: GST-full length.
T1 sequence: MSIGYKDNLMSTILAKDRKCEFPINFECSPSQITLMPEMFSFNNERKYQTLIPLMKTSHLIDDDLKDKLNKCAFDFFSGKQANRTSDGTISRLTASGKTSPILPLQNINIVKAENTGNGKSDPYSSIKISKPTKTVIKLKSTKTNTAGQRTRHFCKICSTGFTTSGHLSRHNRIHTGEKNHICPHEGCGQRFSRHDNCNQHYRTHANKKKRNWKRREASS
How it was run: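 GST-tagged yeast TFs (full-length or DNA-binding domain) were made by PURExpress in vitro transcription/translation and applied at about 100-200 nM to universal all-10-mer Agilent arrays. The arrays were made double-stranded by primer extension, on fresh or once-stripped slides. Bound protein was detected with fluorescent anti-GST, and scans were normalised with masliner. Each ungapped eight-base word, pooled with its reverse complement, received an E-score (modified Wilcoxon-Mann-Whitney statistic) from the Universal PBM Analysis Suite.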

Compared with GCACACTA, TGCTAGCA is lower in “PBM E-score” value: 0.169 for the first, 0.0326 for the second.

Compared with CGCTTCTA, CCCGAAGG is higher in “PBM E-score” value: -0.044 for the first, -0.0101 for the second.

Compared with CCGCCTTC, GCGTTTAA is higher in “PBM E-score” value: -0.253 for the first, -0.0756 for the second.

Going from AAGTGCGA to AACTGGAA, the “PBM E-score” value rises from -0.187 to 0.05.

First: CGCCTTCA
Second: CCGCTTGC
The “PBM E-score” value of the first is lower: -0.273 for the first, -0.131 for the second.

Compared with CATCAATC, AGTGTGTG is higher in “PBM E-score” value: -0.0356 for the first, -0.00931 for the second.

Compared with GAGGAACC, ACGCACCT is lower in “PBM E-score” value: -0.0829 for the first, -0.094 for the second.

First: CACCCCGC
Second: ATACAGCC
The “PBM E-score” value of the first is higher: 0.189 for the first, 0.0802 for the second.

Going from AATATGGA to ATTGAGGC, the “PBM E-score” value falls from 0.0669 to 0.0357.

Going from CATGGTTC to CCATACCA, the “PBM E-score” value falls from 0.0101 to -0.107.

Going from ATGGACCG to CTTGTGAC, the “PBM E-score” value falls from -0.00856 to -0.108.

Compared with CAGGTTCC, AGCTCAGA is lower in “PBM E-score” value: 0.00626 for the first, -0.0214 for the second.

Going from ACTTGGCC to GGTCTTAC, the “PBM E-score” value falls from -0.0839 to -0.219.

First: GCGGTGTA
Second: AGATACCT
The “PBM E-score” value of the first is higher: 0.0942 for the first, 0.0202 for the second.

First: CTAGAAAG
Second: TGAATGAA
The “PBM E-score” value of the first is lower: -0.0314 for the first, 0.142 for the second.

Compared with CGACTTTA, ATATCAGC is higher in “PBM E-score” value: -0.14 for the first, 0.0872 for the second.

Compared with GGGCAATA, AACGTGTA is lower in “PBM E-score” value: 0.0453 for the first, -0.0437 for the second.

Compared with AAAGACGG, GAACAACA is higher in “PBM E-score” value: -0.0232 for the first, 0.00491 for the second.

First: AGAAGACG
Second: CGGGCAGA
The “PBM E-score” value of the first is higher: 0.105 for the first, 0.0991 for the second.

First: CACTCAAA
Second: CTTTCTAC
The “PBM E-score” value of the first is lower: 0.0606 for the first, 0.0876 for the second.

Compared with CAGTGCGG, TCATTACA is lower in “PBM E-score” value: 0.11 for the first, 0.0581 for the second.

First: CTAAACTC
Second: AGATTACT
The “PBM E-score” value of the first is lower: -0.138 for the first, 0.0391 for the second.

Compared with ATTACATA, ATAATGGG is higher in “PBM E-score” value: 0.0153 for the first, 0.125 for the second.

Going from ATATGTAA to CAAGATAA, the “PBM E-score” value rises from 0.0105 to 0.0457.

Compared with CGGACGAC, ACTCCGTA is higher in “PBM E-score” value: -0.061 for the first, -0.0561 for the second.

Compared with AGACCAGC, ATCGAAAT is higher in “PBM E-score” value: -0.182 for the first, 0.0963 for the second.

Compared with CTGTAATC, AGAGATCA is lower in “PBM E-score” value: 0.0655 for the first, -0.0543 for the second.

Going from ACGGAACT to CAAGTTCG, the “PBM E-score” value falls from 0.101 to -0.13.

Compared with ATCGACTA, ACCCAAGG is higher in “PBM E-score” value: 0.0466 for the first, 0.0922 for the second.

Going from TAACGGGA to CAAGATGA, the “PBM E-score” value rises from -0.162 to 0.0666.

Compared with TATCAGCA, GCTCCGAC is lower in “PBM E-score” value: 0.0256 for the first, -0.275 for the second.

First: ATCTGGGC
Second: ATTCTGCA
The “PBM E-score” value of the first is lower: -0.109 for the first, 0.0674 for the second.

Going from ATGCGCCA to AGACGTTC, the “PBM E-score” value falls from 0.122 to -0.0449.

First: GTCAAGAC
Second: CCAAACCG
The “PBM E-score” value of the first is lower: -0.183 for the first, 0.0752 for the second.

First: ACCTAAAG
Second: GACCGCAC
The “PBM E-score” value of the first is higher: -0.00458 for the first, -0.0895 for the second.

Compared with CTTATCGC, TGGCACCA is lower in “PBM E-score” value: -0.0611 for the first, -0.144 for the second.

First: ACGGTTCC
Second: ATTGTGGG
The “PBM E-score” value of the first is lower: -0.0941 for the first, 0.0492 for the second.

Going from GCAGTCCA to AGCGCGAT, the “PBM E-score” value rises from 0.0622 to 0.194.

Compared with CCAATTCG, ATTTCGCA is higher in “PBM E-score” value: -0.0563 for the first, 0.274 for the second.

Compared with AAGGTCTG, AGTAAGCC is lower in “PBM E-score” value: -0.0169 for the first, -0.134 for the second.

Going from AGATAAGC to CGTAAGTA, the “PBM E-score” value rises from -0.189 to -0.0243.

First: CTCACATC
Second: CCCAAAGG
The “PBM E-score” value of the first is higher: 0.0607 for the first, -0.18 for the second.

Going from AGGGAGAA to CAACCAAA, the “PBM E-score” value falls from 0.0297 to -0.00518.

First: ACAAGTAG
Second: AACTCTAC
The “PBM E-score” value of the first is higher: -0.104 for the first, -0.162 for the second.

First: CCACTACA
Second: CATTGCTA
The “PBM E-score” value of the first is lower: 0.045 for the first, 0.118 for the second.

First: CCTCTTAA
Second: AAATGCGC
The “PBM E-score” value of the first is lower: 0.179 for the first, 0.272 for the second.

First: GTGCAATA
Second: AACCGTTA
The “PBM E-score” value of the first is higher: -0.0407 for the first, -0.273 for the second.

Going from GATAATGA to GACCCATA, the “PBM E-score” value rises from 0.0809 to 0.118.

Going from AAGAAAGT to AGGTGTCC, the “PBM E-score” value falls from 0.136 to -0.0496.

Going from ACTCTATA to CATCGTAA, the “PBM E-score” value falls from 0.0465 to 0.0341.

Compared with ACTCACGC, GGTCATCA is lower in “PBM E-score” value: 0.0454 for the first, -0.0816 for the second.

Compared with CGCCGTTC, ACGATCGG is higher in “PBM E-score” value: 0.00368 for the first, 0.0497 for the second.

First: CCTGAGAC
Second: GAGCTACA
The “PBM E-score” value of the first is higher: 0.0415 for the first, -0.114 for the second.

First: CATATATA
Second: AGGGACCC
The “PBM E-score” value of the first is lower: 0.205 for the first, 0.337 for the second.

Compared with AGTAAAGC, TCCTTTCA is higher in “PBM E-score” value: 0.00303 for the first, 0.0779 for the second.

Compared with AACAGGAC, AACCGCCG is higher in “PBM E-score” value: -0.0901 for the first, -0.0452 for the second.

Going from AGACAATG to TCAATCGA, the “PBM E-score” value rises from -0.0393 to 0.115.

Going from ATCCCAAA to AGAAACAG, the “PBM E-score” value falls from 0.0552 to -0.012.

Compared with CAGAGTGG, ACGTAGTG is higher in “PBM E-score” value: -0.0767 for the first, -0.0314 for the second.

First: GATTACCA
Second: CATTAGGG
The “PBM E-score” value of the first is higher: 0.00091 for the first, -0.0266 for the second.

Compared with AAAGTAGT, AGACGCCT is lower in “PBM E-score” value: 0.0374 for the first, -0.193 for the second.

First: ACATCACA
Second: AACTACTA
The “PBM E-score” value of the first is lower: 0.12 for the first, 0.296 for the second.

GCCGATTA and GCGTCAGA are the same in “PBM E-score” value: 0.104 for the first, 0.104 for the second.

Compared with ATTGCCCC, CCAGGCCC is higher in “PBM E-score” value: -0.00346 for the first, 0.00251 for the second.

Compared with CCTACTAC, GCCGTGCA is lower in “PBM E-score” value: -0.0683 for the first, -0.0954 for the second.

First: TAACTGGA
Second: GGCCTACC
The “PBM E-score” value of the first is lower: -0.0611 for the first, 0.0167 for the second.

Going from CCTAGGTC to ATGAGTAC, the “PBM E-score” value rises from 0.00388 to 0.0946.

First: CCTCGTAC
Second: AACTTTTA
The “PBM E-score” value of the first is lower: 0.0199 for the first, 0.066 for the second.

Going from CCTCAAAA to GCTTTACC, the “PBM E-score” value falls from 0.0802 to -0.044.

Compared with CTGTCAAG, GGAACCCC is lower in “PBM E-score” value: -0.061 for the first, -0.0672 for the second.

First: CTGACAAG
Second: CTAATATA
The “PBM E-score” value of the first is lower: 0.0826 for the first, 0.13 for the second.

Compared with AAGACGCC, AGGCCAGG is higher in “PBM E-score” value: -0.0542 for the first, 0.122 for the second.

Going from ATCAAAAG to GTAGCCGA, the “PBM E-score” value falls from 0.00066 to -0.0629.

Compared with CACCTGCA, GAACGTGA is higher in “PBM E-score” value: -0.125 for the first, -0.0419 for the second.

Going from GCCTCGTA to ACAGACGC, the “PBM E-score” value falls from 0.0621 to -0.0339.

Compared with ACCCTTTC, GACGCTCC is lower in “PBM E-score” value: 0.125 for the first, -0.124 for the second.

Compared with CATGCTAA, GGGCGCCC is higher in “PBM E-score” value: 0.0377 for the first, 0.282 for the second.

Compared with CGTCGGAG, CTAATGCA is higher in “PBM E-score” value: -0.0424 for the first, 0.116 for the second.

Going from ATAAACCG to CACGTCTC, the “PBM E-score” value falls from 0.109 to 0.00538.

Compared with GCGCACCC, GCCTGAAA is higher in “PBM E-score” value: 0.0702 for the first, 0.115 for the second.

Compared with ACACACGG, AACCGACC is higher in “PBM E-score” value: -0.0545 for the first, 0.0889 for the second.

Going from GAATAACC to CAACGCAG, the “PBM E-score” value falls from 0.0897 to -0.0929.

Compared with ATGCTGAG, CGCAGTTA is higher in “PBM E-score” value: -0.169 for the first, -0.0242 for the second.

Going from ACTGGTCT to AATAAGCC, the “PBM E-score” value rises from -0.245 to 0.0777.

First: ATGAGCAT
Second: CCGCCTGA
The “PBM E-score” value of the first is higher: 0.0227 for the first, -0.0981 for the second.

Compared with CAGGTTTA, AGCGATGA is higher in “PBM E-score” value: 0.00341 for the first, 0.0315 for the second.
